Measured data: PubChem BioAssay AID504764 (Drosophila RNAi Screening Center, 2011)
The screen tested about 22,000 reagents; shown is a random part of those with a known target gene and a result. Of all reagents, 403 (1.9%) were called active. 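Unnormalised raw counts per well; ratio z-scores behind the hit calls and whether each hit raises or lowers signal are not deposited.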 The record does not give: the amount of reagent.

Test: 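Knock-downs that raise or lower a Notch target reporter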 (primary screen)
Cells: Drosophila Kc167 cells
Knock-down reagent: long dsRNA against Drosophila genes
Timing: about 5 days (4 days dsRNA, then 24 h after transfection)
Treatment: transfection of constitutively active membrane-tethered Notch lacking the extracellular domain, read 24 h later
Measured: 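Firefly luciferase from an E(spl)m3 reporter with active Notch, plus control-promoter and uninduced reporter wells for normalisation; unnormalised counts, duplicate wells a and b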
Direction: induced reporter light, run 1, well a and induced reporter light, run 1, well b: higher = more light from the Notch target reporter with active Notch; control promoter light, run 1, well a and control promoter light, run 1, well b: higher = more light from the viral control promoter (cell number, transfection, viability); uninduced reporter light, run 1, well a: higher = more light from the Notch target reporter without active Notch
Hit rule: 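Hit if the duplicate-averaged log2 ratio of induced to control-promoter light gives a plate-wise z beyond ±2, or induced to uninduced beyond ±1.8; weak-control or discordant-duplicate wells dropped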
Meaning of the calls: active = modifier hit (raised or lowered Notch signal); inactive = not a hit

RhoGAP15B [DRSC19924]: induced reporter light, run 1, well a = 1.49e5; induced reporter light, run 1, well b = 1.06e5; control promoter light, run 1, well a = 1.10e5; control promoter light, run 1, well b = 66265; uninduced reporter light, run 1, well a = 9675; Outcome = inactive
RhoGAP15B [DRSC19925]: induced reporter light, run 1, well a = 65745; induced reporter light, run 1, well b = 78565; control promoter light, run 1, well a = 84345; control promoter light, run 1, well b = 60460; uninduced reporter light, run 1, well a = 9230; Outcome = inactive
CG5653 [DRSC10534]: induced reporter light, run 1, well a = 2.52e5; induced reporter light, run 1, well b = 3.09e5; control promoter light, run 1, well a = 3.61e5; control promoter light, run 1, well b = 3.36e5; uninduced reporter light, run 1, well a = 19930; Outcome = inactive
Rh2 [DRSC16821]: induced reporter light, run 1, well a = 2.00e5; induced reporter light, run 1, well b = 1.80e5; control promoter light, run 1, well a = 2.17e5; control promoter light, run 1, well b = 2.02e5; uninduced reporter light, run 1, well a = 11342; Outcome = inactive
Irbp [DRSC17007]: induced reporter light, run 1, well a = 88955; induced reporter light, run 1, well b = 93855; control promoter light, run 1, well a = 73495; control promoter light, run 1, well b = 54860; uninduced reporter light, run 1, well a = 4940; Outcome = inactive
Dpit47 [DRSC04985]: induced reporter light, run 1, well a = 1.59e5; induced reporter light, run 1, well b = 1.64e5; control promoter light, run 1, well a = 1.51e5; control promoter light, run 1, well b = 1.27e5; uninduced reporter light, run 1, well a = 11225; Outcome = inactive
Alg14 [DRSC19983]: induced reporter light, run 1, well a = 71925; induced reporter light, run 1, well b = 77010; control promoter light, run 1, well a = 1.56e5; control promoter light, run 1, well b = 97600; uninduced reporter light, run 1, well a = 12040; Outcome = inactive
TBC1d7 [DRSC15985]: induced reporter light, run 1, well a = 2.31e5; induced reporter light, run 1, well b = 2.29e5; control promoter light, run 1, well a = 2.93e5; control promoter light, run 1, well b = 2.84e5; uninduced reporter light, run 1, well a = 17440; Outcome = inactive
CG31103 [DRSC22324]: Outcome = inactive
Prosbeta3 [DRSC16801]: induced reporter light, run 1, well a = 20478; induced reporter light, run 1, well b = 17000; control promoter light, run 1, well a = 13990; control promoter light, run 1, well b = 15655; uninduced reporter light, run 1, well a = 1478; Outcome = inactive
Trpm [DRSC06629]: induced reporter light, run 1, well a = 1.02e5; induced reporter light, run 1, well b = 96290; control promoter light, run 1, well a = 1.77e5; control promoter light, run 1, well b = 1.93e5; uninduced reporter light, run 1, well a = 10195; Outcome = inactive
Dtwd2 [DRSC12501]: induced reporter light, run 1, well a = 1.06e5; induced reporter light, run 1, well b = 1.23e5; control promoter light, run 1, well a = 1.37e5; control promoter light, run 1, well b = 1.01e5; uninduced reporter light, run 1, well a = 7785; Outcome = inactive
ND-MNLL [DRSC18159]: induced reporter light, run 1, well a = 1.06e5; induced reporter light, run 1, well b = 1.02e5; control promoter light, run 1, well a = 2.14e5; control promoter light, run 1, well b = 1.92e5; uninduced reporter light, run 1, well a = 8340; Outcome = inactive
PKD [DRSC16200]: induced reporter light, run 1, well a = 1.61e5; induced reporter light, run 1, well b = 1.55e5; control promoter light, run 1, well a = 1.78e5; control promoter light, run 1, well b = 1.79e5; uninduced reporter light, run 1, well a = 10225; Outcome = inactive
Rbfox1 [DRSC09034]: induced reporter light, run 1, well a = 1.46e5; induced reporter light, run 1, well b = 1.25e5; control promoter light, run 1, well a = 1.16e5; control promoter light, run 1, well b = 1.61e5; uninduced reporter light, run 1, well a = 12255; Outcome = inactive
Rbfox1 [DRSC10157]: induced reporter light, run 1, well a = 1.59e5; induced reporter light, run 1, well b = 1.88e5; control promoter light, run 1, well a = 2.50e5; control promoter light, run 1, well b = 2.33e5; uninduced reporter light, run 1, well a = 9985; Outcome = inactive
Rbfox1 [DRSC10320]: induced reporter light, run 1, well a = 1.41e5; induced reporter light, run 1, well b = 1.12e5; control promoter light, run 1, well a = 79730; control promoter light, run 1, well b = 94520; uninduced reporter light, run 1, well a = 7350; Outcome = inactive
sip1 [DRSC03609]: induced reporter light, run 1, well a = 27950; induced reporter light, run 1, well b = 28740; control promoter light, run 1, well a = 19515; control promoter light, run 1, well b = 21050; uninduced reporter light, run 1, well a = 2080; Outcome = inactive
sip1 [DRSC22648]: Outcome = inactive
